# Data from PubChem BioAssay AID493014 (National Center for Advancing Translational Sciences (NCATS), 2011).
# The other results are listed elsewhere or left out. Further columns of the screen follow, without active or inactive calls. Most of these compounds were active or inconclusive in the main read-out, so they are no random draw. Potencies come from curve fits of mixed quality, noted in brackets.
# Assay: qHTS Assay to Find Inhibitors of Chronic Active B-Cell Receptor Signaling
# Conditions: ABC-DLBCL IkBa-CBG/CBR reporter, luminescence ratio (green luciferase fused to IkBa over red control in TMD8 lymphoma cells), 4 h
# Outline: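 Doxycycline induced both beetle luciferases in TMD8 lymphoma cells; IKK-driven degradation limits the IkappaBalpha-fused green signal, while red luminescence normalises for cell number and nonspecific effects. Compounds tested up to 46 uM, 4 hrs.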
# [1] = measured here: CBR red luminescence, cell number
# [2] = measured here: IkBa-CBG green luminescence
SMILES,AC50 [1],AC50 [2]
O=C(Nc1ccc2nc3n(c(=O)c2c1)CCCC3)c1cc([N+](=O)[O-])ccc1F,"9.2 µM [falling, partial curve]","8.2 µM [falling, partial curve, poor fit]"
O=C(CSCc1ccc(Cl)cc1)Nc1cc([N+](=O)[O-])ccc1O,"35.5 µM [falling, single point]",
C/C(=N\NC(=S)NC1CCCCC1)c1cccs1,"3.55 µM [rising, partial curve, poor fit]",
Cc1ccc(N/N=C/c2ccncc2)cc1,"7.08 µM [rising, full curve, poor fit]",
CC(=O)Nc1ccc(S(=O)(=O)N(Cc2ccccc2)c2ccccc2)cc1,"35.5 µM [rising, single point]",
Cc1csc(Cn2c(CN(C)C)nc3ccccc3c2=O)n1,"5.8 µM [falling, single point]",
Cc1nc(Nc2ccc(C(=O)O)cc2)nc(Nc2ccc(C(=O)O)cc2)c1[N+](=O)[O-],"10 µM [falling, partial curve]",
O=C(Nc1ccc(F)cc1)c1ccc2ncsc2c1,"20 µM [falling, single point]",
CC(=O)c1cccc(NC(=O)c2cc3nc(C)cc(C)n3n2)c1,"14.6 µM [rising, partial curve, poor fit]",
O=C(CCC1CCCC1)c1c(O)c2ccccc2oc1=O,"4.11 µM [falling, partial curve]",
COc1ccc(NC(=O)CN2CCN(c3nc(-c4ccc(F)cc4)cs3)CC2)c(OC)c1,"6.31 µM [rising, partial curve, poor fit]",
O=C(c1c[nH]c(C(=O)C(Cl)(Cl)Cl)c1)c1ccc(F)cc1F,"8.91 µM [falling, partial curve, poor fit]",
CNC(=O)[C@H]1O[C@@H](n2cnc3c(NCc4cccc(I)c4)nc(Cl)nc32)[C@H](O)[C@@H]1O,"2.31 µM [rising, full curve]","8.2 µM [falling, partial curve]"
CCOC(=O)c1c(NC(=O)C2C3CCC(O3)C2C(=O)O)sc2c1CCCC2 (stereo not drawn),"35.5 µM [falling, single point]",
O=[N+]([O-])c1ccc(N2CCN(S(=O)(=O)c3ccc4ccccc4c3)CC2)cc1NCC1CCCO1 (stereo not drawn),"32.6 µM [falling, single point]",
CN(CCOc1ccc(Cl)cc1)CC(=O)Nc1ccc(OC(F)F)cc1,"25.1 µM [falling, single point]",
COc1cc(Br)cc(C=Nc2cccc(C(F)(F)F)c2)c1O,"29.1 µM [falling, single point]",
COc1ccccc1CNC(=O)CNCCc1ccc(OC)c(OC)c1,"14.1 µM [rising, single point]",
CC1Cc2nc(SCC(=O)N3CCCc4ccccc43)n(C)c(=O)c2S1 (stereo not drawn),"20.6 µM [falling, single point]",
NNS(=O)(=O)c1ccc(Cc2ncc(C(F)(F)F)cc2Cl)s1,"29.1 µM [rising, single point]",
Cc1ccc(S(=O)(=O)Nc2cnn(-c3ccccc3)c(=O)c2Cl)cc1,"0.282 µM [falling, full curve, poor fit]",
O=C(O)c1ccc(NC(=S)NC2CCCCC2)cc1,"7.31 µM [falling, partial curve]",
O=C1c2cccc3cccc(c23)C(=O)N1CCN1CCN(CC(O)COc2ccc3ccccc3c2)CC1 (stereo not drawn),"3.66 µM [rising, full curve, poor fit]",
Cc1noc(C)c1C(=O)OCC(=O)Nc1ccccc1SCC#N,"3.66 µM [falling, full curve, poor fit]",
O=C(N/N=C/c1ccccc1)c1n[nH]c2c1CCCC2,"2.24 µM [falling, full curve]",
COc1ccc(OC)c(S(=O)(=O)N2CCC3(CC2)OCCN3S(=O)(=O)c2cccs2)c1,"2.31 µM [rising, full curve, poor fit]",
O=S1(=O)N=C(SCCO)c2ccccc21,"35.5 µM [rising, partial curve, poor fit]",
Cc1cccc(-c2nc3c4ccccc4n(CC(=O)Nc4cccc(F)c4)c(=O)n3n2)c1,"35.5 µM [rising, single point]",
CCCOc1ccc(N2C(=O)C3C(C(C)C)NC4(C(=O)c5ccccc5C4=O)C3C2=O)cc1 (stereo not drawn),"29.1 µM [falling, single point]","32.6 µM [rising, partial curve, poor fit]"
COc1cccc2cc(CC(=O)c3cc(C)ccc3C)c(=O)oc12,"6.31 µM [falling, partial curve, poor fit]",

# No new results follow: an excerpt of the list.
SMILES,AC50 [1],AC50 [2]
O=C(Nc1ccc2nc3n(c(=O)c2c1)CCCC3)c1cc([N+](=O)[O-])ccc1F,"9.2 µM [falling, partial curve]","8.2 µM [falling, partial curve, poor fit]"
O=C(CSCc1ccc(Cl)cc1)Nc1cc([N+](=O)[O-])ccc1O,"35.5 µM [falling, single point]",
